From patent US10463764B2, “3D tissue-engineered bone marrow for personalized therapy and drug development” (Washington University, priority 2014, dated 2019)
Some results were stated once for a whole list of compounds, not compound by compound.

System: MM1s cells
Assay: Drug survival of MM1s cells in mono- or multi-culture in classic 2D cultures and 3DTEBM, by flow cytometry
Format: cell-based
Settings: 24 h
Experimental: MM1s-GFP cells (30×10^3 cells/well) were cultured in mono-culture or multi-culture conditions [CD138^− stromal cells-DiD (10×10^3 cells/well), HUVECs-DiD (10×10^3 cells/well), and fibronectin 100 ng/ml)] in 3DTEBM and classic 2D cultures. After 2 h gelification of 3DTEBM or adhesion in 2D cultures (cells were culture in 50 μl), 50 ul of RPMI completed media was added on top of 3DTEBM. Then, 50 μl of bortezomib (0-30 nM), carfilzomib (0, 10 nM), or melphalan (0, 1 μM) solutions were added on top of 2D cultures and 3DTEBM for 24 h. Cell proliferation assay was assessed by flow cytometry as previously described. Briefly, drug-media was removed, 3DTEBM were digested and cells of 2D cultures detached by pipetting. Effect of drug treatment in MM1s-GFP cells was measured and normalized to non-treated conditions.
Finally, the effect of increasing concentrations of bortezomib on the survival of MM1s cells grown in mono-culture or multi-culture in 3DTEBM and 2D cultures was measured.

Row | Compound | MM cells killed (bortezomib 5 nM, 3DTEBM multi-culture) | MM cells killed (bortezomib 5 nM, classic 2D mono-culture) | MM cells killed (carfilzomib 10 nM, 3DTEBM multi-culture) | MM cells killed (carfilzomib 10 nM, classic 2D mono-culture)
1 | CC(C)C[C@H](NC(=O)[C@H](Cc1ccccc1)NC(=O)c1cnccn1)B(O)O [bortezomib] | 5-15% | 40-50% |  | 
2 | CC(C)C[C@H](NC(=O)[C@H](CCc1ccccc1)NC(=O)CN1CCOCC1)C(=O)N[C@@H](Cc1ccccc1)C(=O)N[C@@H](CC(C)C)C(=O)[C@@]1(C)CO1 [carfilzomib] |  |  | 5-15% | 40-50%
